Data published in patent US8343951B2, “Volatile sulfide production inhibitor and method for inhibiting the production of volatile sulfide using the inhibitor” (Kabushiki Kaisha Hayashibara Seibutsu Kagaku Kenkyujo, priority 2006, dated 2013).

Assay: Sensory test of taste of milk test solutions by 11 panelists
Parameters: key to Taste: different (D) from control; the same (S) as control
Conditions: for Taste: milk, versus plain milk
Procedure: AA-2G (reagent grade, commercialized by Hayashibara Biochemical Laboratories, Inc.) was added in commercial milk to give the concentrations described in Table 2 to make the test solutions. Test solutions containing ascorbic acid were prepared in the same way except for using ascorbic acid (guaranteed regent) in place of AA-2G. The commercial milk was used plain as control. Sensory test of the solutions was performed by 11 panelists to evaluate the taste of each test solution added with AA-2G or ascorbic acid as being different (D) from control or as being the same (S) as control. As a result, eight or more of the 11 panelists gave a same evaluation to each test solution.

| SMILES | taste of the milk (sensory test) (concentration of 0.5% or less) | taste of the milk (sensory test) (concentration of 2.5%) | Taste (additive 0.0001% in sample) | Taste (additive 0.0005% in sample) | Taste (additive 0.001% in sample) | Taste (additive 0.005% in sample) | Taste (additive 0.01% in sample) | Taste (additive 0.05% in sample) | Taste (additive 0.1% in sample) | Taste (additive 0.5% in sample) | Taste (additive 2.5% in sample) |
| --- | --- | --- | --- | --- | --- | --- | --- | --- | --- | --- | --- |
| O=C1O[C@H]([C@@H](O)CO)C(O)=C1O [Ascorbic acid, L-ascorbic acid, reference compound] | did not alter the taste of the milk | alter the taste of the milk | S | S | S | S | S | S | S | S | D |
| O=C1O[C@H]([C@@H](O)CO)C(O)=C1O[C@H]1O[C@H](CO)[C@@H](O)[C@H](O)[C@H]1O [AA-2G, α-D-glucopyronosyl-(1→2)-L-ascorbic acid] | did not alter the taste of the milk | alter the taste of the milk | S | S | S | S | S | S | S | S | D |
